Results deposited as PubChem BioAssay AID652243 (Drosophila RNAi Screening Center, 2013)

Screen: 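Fly genes required for human androgen receptor driven transcription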 (primary screen)
Cells: Drosophila S2R+ cells
Reagents: long dsRNA against Drosophila genes
Time to read-out: 72 h (48 h, then 24 h hormone)
Treatment: synthetic androgen R1881 at 10 nM for 24 h
Measured: 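Firefly light from an androgen-responsive reporter and Renilla control light per well, raw and unnormalised, for each of two replicates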
Scale: firefly reporter light: higher = more light from androgen-responsive reporter; Renilla control light: higher = more constitutive control signal (cell number, transfection)
Rule for the call: 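Across duplicate plates, a knock-down whose log firefly/Renilla ratio shifted a set fold down or up from the GFP/LacZ control mean was a hit; the downward cut appears as both 1.5 and 3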
Calls: active = hit: reporter lowered or raised; inactive = no hit
The screen tested about 24,000 reagents; below is a random part of those that have a named target and a result. Of all reagents, 246 (1%) are marked active. 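Plates not normalised; calls are printed but the firefly/Renilla ratio behind them is not deposited; fold cut for lowering reported inconsistently.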 Raw values vary from plate to plate and are shown uncorrected. Names joined by + are all predicted targets of the reagent. Not given: the amount of reagent.

gene	dsRNA	firefly reporter light, replicate 1	firefly reporter light, replicate 2	Renilla control light, replicate 1	Renilla control light, replicate 2	outcome
CG31998	DRSC17137	53823	38347	6.33e5	3.25e5	inactive
CG31998	DRSC17138	2.12e5	2.17e5	1.82e6	2.54e6	inactive
bin3 (bicoid-interacting protein 3)	DRSC04919	2.88e5	2.25e5	1.71e6	1.97e6	inactive
CG10486	DRSC09735	1.48e5	1.43e5	1.24e6	1.65e6	inactive
CG3517	DRSC15492	2.45e5	2.06e5	3.38e6	2.57e6	inactive
CG3517	DRSC26928	4.17e5	4.97e5	5.85e5	4.91e5	inactive
CG9084	DRSC07335	2.18e5	1.92e5	1.02e6	8.78e5	inactive
Arglu1 (Arginine and glutamate rich 1)	DRSC02909	2.10e5	2.64e5	1.82e6	1.40e6	inactive
Arglu1 (Arginine and glutamate rich 1)	DRSC28836	4.53e5	2.50e5	1.58e6	1.46e6	inactive
CG17839	DRSC10290	1.58e5	1.56e5	1.74e6	1.49e6	inactive
CG17839	DRSC10291	1.01e5	1.27e5	1.98e6	1.59e6	inactive
Prosalpha6 (Proteasome alpha6 subunit)	DRSC03401	1.86e5	1.28e5	7.46e5	9.85e5	inactive
scpr-B (SCP-containing protein B)	DRSC15200	60862	44112	3.78e5	4.66e5	inactive
PpV (Protein phosphatase V)	DRSC18700	4.70e5	6.06e5	2.64e6	3.31e6	inactive
PpV (Protein phosphatase V)	DRSC23307	6.18e5	6.38e5	9.14e5	1.09e6	inactive
PpV (Protein phosphatase V)	DRSC29344	5.94e5	4.85e5	1.28e6	1.28e6	inactive
Rpn13 (Regulatory particle non-ATPase 13)	DRSC06379	58700	57554	1.17e6	1.17e6	inactive
CG12684	DRSC17875	3.09e5	2.34e5	2.89e6	3.11e6	inactive
Elo68beta (Elongase 68beta)	DRSC09860	3.72e5	2.86e5	2.79e6	2.56e6	inactive
TTLL12 (Tubulin tyrosine ligase-like 12)	DRSC06555	2.34e5	2.46e5	1.35e6	1.42e6	inactive
CG8372	DRSC03086	8.72e5	1.00e6	2.09e6	1.57e6	inactive
Der-2 (Derlin-2)	DRSC15021	1.72e5	1.45e5	2.26e6	1.90e6	inactive
CG6432	DRSC16039	87108	60112	5.97e5	4.79e5	inactive
CalpA (Calpain-A)	DRSC07352	92086	1.38e5	1.32e6	1.84e6	inactive
RpS16 (Ribosomal protein S16)	DRSC04442	2.61e5	4.08e5	1.30e6	1.68e6	inactive
RpS16 (Ribosomal protein S16)	DRSC29812	4.82e5	3.27e5	1.04e6	9.37e5	inactive
CG7544	DRSC07023	4.88e5	4.78e5	2.45e6	4.27e6	inactive
yellow-b	DRSC03639	9.75e5	1.10e6	1.62e6	1.19e6	inactive
scyl (scylla)	DRSC11392	1.81e5	1.35e5	3.83e6	3.57e6	inactive
scyl (scylla)	DRSC27699	3.52e5	2.68e5	4.53e5	5.67e5	inactive
CG8927	DRSC16458	1.38e5	2.03e5	2.41e6	2.74e6	inactive
CG8927	DRSC25722	8.55e5	1.10e6	7.79e5	1.03e6	inactive
wrapper	DRSC04723	6.34e5	4.37e5	1.18e6	1.07e6	inactive
CG4476	DRSC10424	1.79e5	1.68e5	1.75e6	1.37e6	inactive
CG4476	DRSC25362	7.11e5	1.12e6	1.07e6	1.16e6	inactive
Send1 (Spermathecal endopeptidase 1)	DRSC00482	83681	69432	5.36e5	6.49e5	inactive
Send1 (Spermathecal endopeptidase 1)	DRSC27719	2.87e5	3.37e5	5.67e5	5.82e5	inactive
CG31805	DRSC01563	1.49e5	2.08e5	4.82e5	6.82e5	inactive
CG16743	DRSC24981	1.01e6	1.14e6	8.71e5	8.77e5	inactive
CG30031 + deltaTry + CG30025 + 1 more	DRSC21262	1.42e5	80698	4.96e5	4.48e5	inactive

Records listed so far whose target name begins with P or p:
gene	dsRNA	firefly reporter light, replicate 1	firefly reporter light, replicate 2	Renilla control light, replicate 1	Renilla control light, replicate 2	outcome
Prosalpha6 (Proteasome alpha6 subunit)	DRSC03401	1.86e5	1.28e5	7.46e5	9.85e5	inactive
PpV (Protein phosphatase V)	DRSC18700	4.70e5	6.06e5	2.64e6	3.31e6	inactive
PpV (Protein phosphatase V)	DRSC23307	6.18e5	6.38e5	9.14e5	1.09e6	inactive
PpV (Protein phosphatase V)	DRSC29344	5.94e5	4.85e5	1.28e6	1.28e6	inactive
